Measured values: PMC5430443
No constants are given. Whether binding was seen depends on the method and setting. In cells and extracts the contact can be indirect. Some binding calls cover weakened binding; strength is not graded here. Sequences can lack the tags named with a protein.

Legend:
[1] = target: GST-FMRP-1-200 F32L (human) (UniProt Q06787); test: pull-down; 20 ug GST-tagged protein pre-coupled to glutathione Sepharose 4B, lysate of HEK293T cells (endogenous proteins or Flag-tagged proteins 36 h after transfection; 100 mM NaCl, 20 mM Tris-HCl pH 7.4, 5 mM MgCl2, 0.5% Igepal CA-630), 4 h at 4 C, with or without RNase A 0.5 mg/ml; immunoblotting; only the target purified
[2] = target: GST-FMRP-1-200 Y96L (human) (UniProt Q06787); test: as above

B1: Flag-BAIAP2L1 (protein, UniProt Q9UHR4 1-511)
chain: MSRGPEEVNRLTESTYRNVMEQFNPGLRNLINLGKNYEKAVNAMILAGKAYYDGVAKIGEIATGSPVSTELGHVLIEISSTHKKLNESLDENFKKFHKEIIHELEKKIELDVKYMNATLKRYQTEHKNKLESLEKSQAELKKIRRKSQGSRNALKYEHKEIEYVETVTSRQSEIQKFIADGCKEALLEEKRRFCFLVDKHCGFANHIHYYHLQSAELLNSKLPRWQETCVDAIKVPEKIMNMIEEIKTPASTPVSGTPQASPMIERSNVVRKDYDTLSKCSPKMPPAPSGRAYTSPLIDMFNNPATAAPNSQRVNNSTGTSEDPSLQRSVSVATGLNMMKKQKVKTIFPHTAGSNKTLLSFAQGDVITLLIPEEKDGWLYGEHDVSKARGWFPSSYTKLLEENETEAVTVPTPSPTPVRSISTVNLSENSSVVIPPPDYLECLSMGAAADRRADSARTTSTFKAPASKPETAAPNDANGTAKPPFLSGENPFATVKLRPTVTNDRSAPIIR
For B1, the binding [1] was “binds” and the binding [2] was “binds”.
